Laboratory results reported in PubChem BioAssay AID1259415 (National Center for Advancing Translational Sciences (NCATS), 2018).
Among all 410,000 compounds or so, about 18,000 (4.4%) were called active. Inconclusive means that the source gave no clear call. Such entries were picked first, then a sample of the others. Cut-off read from the data, not from the text of the source: active = activity change below about -60%; inconclusive = no clear call, values can overlap the other calls; inactive = above about -39%.

Assay: qHTS Assay for inhibitors of the human cytomegalovirus (HCMV)
Details: HFF cells, HCMV-luciferase reporter, 72 h; at 57.5 µM; stronger effect = lower value
In short: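 Screen run at 2 compound doses on HFFs infected with reporter HCMV, MOI 1 PFU/cell. Luciferase activity from cell lysates at 72 h post infection gave inhibition relative to buffer-only and Salinomycin wells.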
% is set by controls: 0 for no effect and ±100 for the full control effect.

Row | SMILES | activity change, negative = inhibition
1 | Cn1c(-c2ccccc2)cnc1SCC(=O)N1CCCc2ccccc21 | inconclusive: -42.6%
2 | CC(=O)c1ccc(NC(=S)NC2CCCC(C)C2C)cc1 (configuration not stated) | inconclusive: -45.9%
3 | CC(=O)Nc1cccc(NC(=O)c2ccc3c(c2)CCN3S(=O)(=O)c2ccccc2)c1 | inactive: -12.7%
4 | CC(C)(C)c1ccc(C(=O)NCC(=O)N2CCNC(=O)C2)cc1 | inconclusive: -40%
5 | COc1ccc(NC(=O)Nc2ccc(Br)cn2)cc1 | inconclusive: -56.4%
6 | CCCSc1ccc(C(=O)Nc2ccc(Cl)cc2)cn1 | inconclusive: -47.4%
7 | Cc1cc(C)c(S(=O)(=O)N(C)CC(=O)NC2CCCC2)c(C)c1 | inconclusive: -46%
8 | CN(C)c1ccc(NC(=O)CSc2nc3ccccc3c(=O)n2C2CCCCC2)cc1 | inconclusive: -58.6%
9 | CCN(CC)S(=O)(=O)c1ccc2c(c1)oc(=O)n2CC(=O)N(C)C1CCCCC1 | inconclusive: -46.2%
10 | CCCCn1c(N)c(N(CCOC)C(=O)c2ccc(-c3cccc(C(F)(F)F)c3)o2)c(=O)[nH]c1=O | inactive: -30.9%
11 | Cc1ccc(NC(=O)COc2ccc(Br)cc2CO)cc1 | inactive: 41.9%
12 | CCN1C(=O)/C(=C\C=C2/C=CC=CN2CC)SC1=S | inactive: 47.5%
13 | COCCOC(=O)c1c(C)oc2ccc(NS(=O)(=O)c3cccs3)cc12 | inconclusive: -48.1%
14 | O=C(Cn1cnc2cc([N+](=O)[O-])ccc2c1=O)Nc1ccc(Br)cc1 | inconclusive: -41.9%
15 | C=CCSc1ncc(CO)n1Cc1ccccc1 | inconclusive: -46.6%
16 | COc1cccc(-c2cc(C(=O)Nc3c(C)nn(Cc4ccccc4)c3C)no2)c1 | inconclusive: -44.4%
17 | CN(C(=O)CCN1CCCO1)C1CCCN(Cc2ccccc2F)C1 (configuration not stated) | inconclusive: -43.2%
18 | O=C(CCC(=O)N1CCN(S(=O)(=O)c2ccc(Cl)cc2)CC1)Nc1cccc(Br)c1 | inconclusive: -42.1%
19 | COc1ccc(C(=O)Nc2ccc(C3CC3(Cl)Cl)cc2)cc1 (configuration not stated) | inconclusive: -54.3%
20 | Cc1nc(-c2ccc(S(=O)(=O)Nc3ccc(Br)cc3F)cc2)co1 | inconclusive: 0%
21 | Cc1cccc(CCNC(=O)CNS(=O)(=O)c2ccc3nc(C)sc3c2)c1 | inconclusive: -42.8%
22 | Cc1nnc2c(SC(C)C)nc3ccccc3n12 | active: -82.1%

Row | SMILES | activity change, negative = inhibition
23 | O=C(NC1CCCCC1)C(c1ccco1)N(C(=O)c1csnn1)c1cccc(Cl)c1 (configuration not stated) | inconclusive: -50.4%
24 | Cc1n[nH]c(=O)c2c(NC(=O)CSc3nc4ccccc4c(=O)n3CCCO)oc(C)c12 | active: -86.7%
25 | CC1=C(C(=O)OCc2ccc3c(c2)OCO3)C(c2cccc([N+](=O)[O-])c2)NC(=O)N1 (configuration not stated) | active: -80.7%
26 | COC(=O)c1ccc(CSc2ccc3nnc(-c4cccc(F)c4)n3n2)o1 | inactive: 34.4%
27 | Cc1nc(SCC(=O)Nc2nc3ccccc3s2)n[nH]1 | inactive: 24.7%
28 | COc1ccc(F)cc1COc1nc(C)nc2ccccc12 | inconclusive: -48.6%
29 | Cc1cc(C(=O)OCC(=O)N(CC(C)C)c2c(N)n(Cc3ccccc3)c(=O)[nH]c2=O)c2ccccc2n1 | inactive: 22.2%
30 | Cc1cc(C(C)(C)C)ccc1OCCCCN1CCCC1 | inactive: -29.9%
31 | OC[C@@H]1CN(Cc2ccco2)C[C@H](n2cnc3c(NCc4ccc(F)cc4)ncnc32)O1 | active: -68.6%
32 | CCCCN1C(N)=NC[C@@H]1c1ccccc1 | inconclusive: -50.6%
33 | Cc1cc(C(=O)COC(=O)CC2Sc3ccccc3NC2=O)c(C)n1-c1cccc(C(F)(F)F)c1 (configuration not stated) | inconclusive: -51.3%
34 | COc1ccc(C(=O)N2CCCCC2)cc1S(=O)(=O)Nc1ccccc1 | inconclusive: -49.3%
35 | COCCCN1C(=O)c2ccc(C(=O)NCCc3ccccc3)cc2C1=O | inactive: -25.3%
36 | COc1ccc(OC)c2[nH]c(=O)c(CCNC(C)=O)cc12 | inconclusive: -48.2%
37 | COCCNC(=S)N/N=C(\C)c1cccc(C(F)(F)F)c1 | inconclusive: -58.9%
38 | O=C(c1ccco1)N1CCN(c2nc(C(F)(F)F)nc3c2nnn3Cc2ccccc2)CC1 | active: -75.6%
39 | C/C(=N\OCC(=O)NC12CC3CC(CC(C3)C1)C2)c1cc2ccccc2o1 | inactive: -19%
40 | COC(=O)c1ccc(COc2ccc(-c3nn[nH]n3)cc2)cc1 | active: -107%
41 | O=C(CSc1n[nH]c(-c2ccccn2)n1)Nc1ccccc1 | active: -79%
42 | COc1ccccc1C(=O)N1c2ccccc2C(C)(c2ccc(Cl)cc2)CC1(C)C (configuration not stated) | active: -71.8%
43 | CCCN1C2CCCC1CC(NC(=S)Nc1cc(C)cc(C)c1)C2 (configuration not stated) | inconclusive: -58.1%
44 | COC(=O)C1=C(C)NC(C)=C([N+](=O)[O-])C1c1ccccc1C(F)(F)F (configuration not stated) | inconclusive: -47.4%

Some of the entries so far, tab-delimited:
Row	SMILES	activity change, negative = inhibition
36	COc1ccc(OC)c2[nH]c(=O)c(CCNC(C)=O)cc12	inconclusive: -48.2%
37	COCCNC(=S)N/N=C(\C)c1cccc(C(F)(F)F)c1	inconclusive: -58.9%

(more compounds)

Row | SMILES | activity change, negative = inhibition
45 | COc1cccc(C(=O)Nc2ccc(C(=O)c3ccncc3)cc2)c1 | inconclusive: -58.9%
46 | Cc1ccc(C(=O)Nc2c3c(nn2-c2ccccc2)CS(=O)(=O)C3)cc1C | inconclusive: -58%
47 | CC(C(=O)N(C)Cc1cccc(F)c1)N1CCN(S(=O)(=O)c2ccc3c(c2)OCCCO3)CC1 (configuration not stated) | inconclusive: -43.7%
48 | CC(=O)NS(=O)(=O)c1ccc(Nc2ccc([N+](=O)[O-])c3nonc23)cc1 | inconclusive: -44.6%
49 | CN1CCN(C(=O)C2CCC(=O)N(CCc3cccc(F)c3)C2)CC1 (configuration not stated) | inactive: 5.39%
50 | c1ccc(-c2nc3ccccc3[nH]2)cc1 | inactive: 73.4%
51 | Cc1cccc(N(C)C(=O)c2cc(S(=O)(=O)N3CCCCC3)c[nH]2)c1 | inconclusive: -53.9%
52 | C=C1CCN(C(CC(C)C)C(=O)OC)S(=O)(=O)c2ccccc21 (configuration not stated) | inconclusive: -54.7%
53 | O=C(Nc1nc(-c2ccccn2)cs1)c1ccc(Br)s1 | active: -98.6%
54 | NC1=NC(=O)C(=Cc2ccccc2)S1 | inconclusive: -50.4%
55 | O=C(Cc1ccsc1)Nc1cc(F)ccc1F | inconclusive: -44.4%
56 | COc1ccc2c(c1)sc(N)[n+]2Cc1cc(C)cc2cccnc12 | inconclusive: -56.7%
57 | CCCC1CC(=O)OC1(C)C(=O)CSc1n[nH]c(-c2ccccc2)n1 (configuration not stated) | inactive: 25.4%
58 | O=C1CSC2(C(=O)N(Cc3cccc(F)c3)c3ccccc32)N1c1cccc(C(F)(F)F)c1 (configuration not stated) | inconclusive: -48.4%
59 | COc1ccc(OC)c(-n2nnnc2SCC(=O)NCc2ccc3c(c2)OCO3)c1 | inconclusive: -53.1%
60 | S=c1[nH]nc(C2CCCCC2)n1/N=C/c1ccc(Cl)cc1 | inconclusive: -50.7%
61 | COc1ccc(-c2nc3scc(CCNS(=O)(=O)c4ccc(F)cc4C)n3n2)cc1 | inconclusive: -59.8%
62 | COc1cccc(-c2nc3ccc(C(=O)NC(C)Cc4cccnc4)cc3o2)c1 (configuration not stated) | inactive: 254%
63 | Oc1ccccc1N1CCN(c2nc(-c3cccs3)nc3ccccc23)CC1 | inconclusive: -40.3%
64 | CCn1c2c(c(=O)n3ncc(C(=O)N4CCN(c5ccc(Cl)cc5)CC4)c13)CN(Cc1ccc(OC)cc1)CC2 | inconclusive: -49.5%
65 | Cc1nn(C(C)(C)C)c(C)c1/C=N/OC(=O)Nc1ccc(Cl)cc1 | active: -101%
66 | Cc1cc2c(cc1C)CSC(c1ccccc1OC(=O)C(C)(C)C)SC2 | inconclusive: -57.4%

Row | SMILES | activity change, negative = inhibition
67 | O=C(/C=C/c1cccs1)N1CCCC1 | inconclusive: -43.7%
68 | CCCCN(CC)C(=O)C1CCCN(S(=O)(=O)c2cccc3nsnc23)C1 (configuration not stated) | inconclusive: -46.8%
69 | COc1ccc(-c2ccc3[nH]c4c(c3c2)CCN2C(=O)[C@@H]([C@H](C)O)[C@@H](N(C)C(=O)Nc3ccc(F)cc3)C[C@@H]42)cc1 | active: -99.8%
70 | CC(C)(C)c1ccc(C(=O)Nc2ccc(S(=O)(=O)Nc3cnc4ccccc4n3)cc2)cc1 | active: -70.5%
71 | COc1ccc(CNC(=O)c2cccc3c(-c4cnn(C)c4)coc23)cc1OC | inconclusive: -46.2%
72 | CCOc1cc(/C=C/C(=O)NCCc2ccc(S(N)(=O)=O)cc2)ccc1OCC(C)C | inactive: -34%
73 | Cc1ccc(C(=O)Nc2ccc(NC(=O)c3ccc(C)o3)cc2)o1 | inconclusive: -57.9%
74 | CCCn1c(N)c(CC)c(=O)[nH]c1=O | inconclusive: -41.8%
75 | Cc1ccc(CSc2nnc(-c3cnccn3)n2C)cc1 | inconclusive: -41.1%
76 | Oc1ccccc1CNCc1ccccc1 | inactive: 8.71%
77 | Cc1nc2c([nH]c3ccc(Br)cc32)s1 | inconclusive: -43.4%
78 | CCn1ncc(Br)c1C(=O)Nc1cccc(F)c1 | inactive: 23.6%
79 | COc1ccc(CNC(=O)CCc2c(C)c3cc4c(C)coc4c(C)c3oc2=O)cc1OC | inactive: -34.4%
80 | CCOC(=O)C1=C(N)N(c2ccccc2)C2=C(C(=O)CCC2)C1c1cccnc1 (configuration not stated) | inconclusive: -42.4%
81 | COc1cc(C2c3cc4c(cc3OC(NCCc3ccccc3)C2C)OCO4)cc(OC)c1OC (configuration not stated) | active: -82%
82 | COc1cccc(Nc2cc3c(cn2)cc(-c2cccc(C(F)(F)F)c2)n3C)c1 | active: -80.1%
83 | COc1ccccc1/C=N/NC(=O)c1ccc(NC(=O)c2ccccc2Br)cc1 | active: -65.9%
84 | Cc1cc(C(=O)N/N=C/c2ccc(Cl)c([N+](=O)[O-])c2)c(C)n1-c1ccc(F)cc1 | active: -92.5%
85 | COc1ccc(Nc2nnc(-c3ccc(C)cc3)c3ccccc23)cc1C(=O)N1CCCCC1 | active: -73.3%
86 | O=C1S/C(=C\C=C\c2ccco2)C(=O)N1c1ccccc1 | inactive: -33.6%
87 | CC(C)(C)c1ccc(Cn2nnc3c(=O)[nH]c(C4CCN(C(=O)Cc5cccs5)CC4)nc32)cc1 | inconclusive: -47.7%

Filtered by structure: those above containing a thiophene ring, fused or not.
Row | SMILES | activity change, negative = inhibition
13 | COCCOC(=O)c1c(C)oc2ccc(NS(=O)(=O)c3cccs3)cc12 | inconclusive: -48.1%
53 | O=C(Nc1nc(-c2ccccn2)cs1)c1ccc(Br)s1 | active: -98.6%
55 | O=C(Cc1ccsc1)Nc1cc(F)ccc1F | inconclusive: -44.4%
63 | Oc1ccccc1N1CCN(c2nc(-c3cccs3)nc3ccccc23)CC1 | inconclusive: -40.3%
67 | O=C(/C=C/c1cccs1)N1CCCC1 | inconclusive: -43.7%
87 | CC(C)(C)c1ccc(Cn2nnc3c(=O)[nH]c(C4CCN(C(=O)Cc5cccs5)CC4)nc32)cc1 | inconclusive: -47.7%
